Measured values from US20060160092A1.
These are yes or no findings as the source states them, for the method shown. Binding seen in cells or lysates may run through a third protein. Some results given as binding are weak or reduced against the parent protein; the word gives no strength. Sequences can lack the tags named with a protein.

The chains behind the UniProt entries cited, without tags or fusion partners. Residues count along the entry.
UniProt P12814, residues 406-892: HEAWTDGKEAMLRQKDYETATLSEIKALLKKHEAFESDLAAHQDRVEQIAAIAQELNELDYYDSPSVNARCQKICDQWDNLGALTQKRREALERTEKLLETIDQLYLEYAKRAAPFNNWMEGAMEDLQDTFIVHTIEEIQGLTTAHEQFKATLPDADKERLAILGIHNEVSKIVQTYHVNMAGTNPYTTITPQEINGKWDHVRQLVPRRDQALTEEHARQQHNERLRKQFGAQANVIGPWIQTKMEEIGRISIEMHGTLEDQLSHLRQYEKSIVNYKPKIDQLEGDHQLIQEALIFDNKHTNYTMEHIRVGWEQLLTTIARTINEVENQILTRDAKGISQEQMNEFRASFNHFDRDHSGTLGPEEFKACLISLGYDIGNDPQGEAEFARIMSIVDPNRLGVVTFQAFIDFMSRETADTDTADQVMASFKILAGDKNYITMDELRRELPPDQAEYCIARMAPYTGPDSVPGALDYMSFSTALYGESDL

T1: T7-tagged DIL domain (aa 606-983) of afadin (UniProt O35889)
T1 sequence (looked up): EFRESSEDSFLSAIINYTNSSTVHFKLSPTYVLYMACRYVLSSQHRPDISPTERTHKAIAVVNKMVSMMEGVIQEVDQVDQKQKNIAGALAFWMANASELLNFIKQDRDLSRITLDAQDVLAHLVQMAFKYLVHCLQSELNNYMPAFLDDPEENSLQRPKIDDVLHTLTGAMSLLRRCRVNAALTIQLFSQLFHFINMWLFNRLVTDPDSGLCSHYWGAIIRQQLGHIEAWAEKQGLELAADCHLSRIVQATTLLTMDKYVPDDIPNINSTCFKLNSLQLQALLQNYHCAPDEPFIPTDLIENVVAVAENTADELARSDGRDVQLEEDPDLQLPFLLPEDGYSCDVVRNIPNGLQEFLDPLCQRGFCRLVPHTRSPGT


Tests used:
[1] = target: HA-tagged C terminus of α-actinin-1 (HA-α-actinin-1-C; aa 406-892) (human) (UniProt P12814); test: co-immunoprecipitation with anti-FLAG mAb from co-transfected HEK293 cells, Western blot with HA mAb
[2] = target: HA-tagged C terminus of α-actinin-1 (HA-α-actinin-1-C; aa 406-892) (human) (UniProt P12814); test: co-immunoprecipitation with anti-FLAG mAb from co-transfected HEK293 cells, Western blot
[3] = target: T1, T7-tagged DIL domain (aa 606-983) of afadin; test: co-immunoprecipitation with anti-FLAG mAb from transfected HEK293 cells, Western blot

binding [1]	binding [2]	binding [3]	Binder
binds	binds	–	FLAG-tagged mADIP-M (FLAG-mADIP-M; aa 152-436) (protein, not shown: small tags and cut ends) MIGLQERDRQLQCKNRSLHQLLKNEKDEVQKLQNIIASRATQYNHDVKRKEREYNKLKERLHQLVMNKKDKNIAMDVLNYVGRADGKRGSWRTDKTEARNEDEMYKILLNDYEYRQKQILMENAELKKVLQQMKKEMISLLSPQKKKPRERAEDGTGTVAISDIEDDSGELSRDSVWGLSCDTVREQLTNSIRKQWRILKSHVEKLDNQASKVHSEGLNEEDVISRQDHEQETEKLELEIERCKEMIKAQQQLLQQQLATTCDDDTTSLLRDCYLLEEKERLKEE
–	–	binds	FLAG-tagged mADIP-C (aa 339-615) (protein, not shown: small tags and cut ends) LTNSIRKQWRILKSHVEKLDNQASKVHSEGLNEEDVISRQDHEQETEKLELEIERCKEMIKAQQQLLQQQLATTCDDDTTSLLRDCYLLEEKERLKEEWTLFKEQKKNFERERRSFTEAAIRLGLERKAFEEERASWVKQQFLNMTNFDHQNSENVKLFSAFSGSSDPDNLIVHSRPRQKKLHSVANGVPACTSKLTKSLPASPSTSDFRQTHSCVSEHSSISVLNITPEESKPSEVARESTDQKWSVQSRPSSREGCYSGCSSAFRSAHGDRDDLP
